Experimental data reported in the supplement of paper PMC8551327.
Counter-ions that a name gives are not always drawn. Some of the results follow. Cut-off read from the data, not from the text of the source: active = 1.25 or more and inactive = the rest. Single values are uncertain, as repeats are few or missing.

test system: Kcc2-LUC knock-in mouse primary cortical neurons (Kcc2 promoter reporter); experiment: Kcc2 promoter-driven luciferase activity relative to vehicle control (fold of vehicle (ratio)); higher = stronger Kcc2 promoter activation (Kcc2 expression enhancer); conditions: 100 nM; 48 h

Kcc2 promoter-driven luciferase activity, inactive:
CCN(CC)CC(C)(C)C(=O)/C=C/c1ccc(C)cc1 1.13
CC(C)CCCC(=O)CCCCCCC(=O)CCN(O)C(=O)[C@@H](N)CO [Lipoxamycin] 0.26
COc1cc(/C=C2\S/C(=N/Nc3nc(-c4ccc(Br)cc4)cs3)NC2=O)cc(OC)c1OC 0.938
N#CCCN(CCC#N)c1ccc(C=C2N=C(c3cc([N+](=O)[O-])ccc3Cl)OC2=O)cc1 (stereo in doubt) 0.82
Cc1c2c(cc3c1[nH]c1ccccc13)C=NCC2 [5-Methyl-4,6-dihydro-3h-pyrido[4,3-b]carbazole] 1.15
O=C(NC1=C(Cl)C(=O)c2ccccc2C1=O)C(=O)C(C(=O)c1ccc2ccccc2c1)C1OC(=O)c2ccccc21 (stereo not drawn) 0.68
Cc1cc(=O)[nH]c(NN2C(Cl)C(=O)C2c2c(O)ccc3ccccc23)n1 (stereo not drawn) 0.01
CN(C)c1nc(=NCc2ccco2)ss1 0.88
CCCCCCCCCCCCCCCCCCOCC(COCCOCC[N+]1(CCCCCC(=O)[O-])CCCC1)Oc1ncccn1 (stereo not drawn) [Pyrrolidinium, inner salt] 1.02
O=C1C=C(NCCc2ccccc2)c2ccccc2C1=O [4-(2-phenylethylamino)naphthalene-1,2-dione] 0.52
O=C1Cc2c(-c3ccccc3)cc(-c3cccc(Cl)c3)nc2-c2ccccc2N1 0.87
CO[C@@H]1C[C@](C)(O)Cc2cc3c(c(O)c21)C(=O)c1c(O)cc2c(c1C3=O)O[C@@H]1O[C@@]2(C)[C@H](O)[C@@H](N(C)C)[C@@H]1O [Menogaril] 1.18
Cc1c2cc[n+](CCN3CCCCC3)cc2c(C)c2c1[nH]c1ccc(O)cc12 0.8
C=C1C(=O)OC2CC1C(O)C/C(C)=C/CC/C(C)=C/C(O)CC2C (stereo not drawn) [Crassin] 1.21
CSCC(CO)NC(=O)/C=C/c1c(C)[nH]c(=O)[nH]c1=O (stereo not drawn) 0.97
COC(=O)C(=O)C(C(=O)C(=O)Nc1cc(C)ccc1C)c1nc2ccc(C(=O)c3ccccc3)cc2[nH]c1=O (stereo not drawn) 0.79
CCCc1cc(=O)oc2c3c(c4c(c12)OC(C)(C)C=C4)O[C@H](C)[C@@H](C)[C@@H]3O 0.985
Nc1nc(SCc2ccccc2Cl)c2[nH]cnc2n1 [6-[(2-Chlorophenyl)methylsulfanyl]-7H-purin-2-amine] 0.97
NC(=O)N/N=C1\CC2C3CC4C2C4C13 (stereo not drawn) 0.83
CN(C)C(=O)c1cccc(COc2ccc(N3C(N)=NC(N)=NC3(C)C)cc2Cl)c1 1.16
COc1ccc2cc(CN3CCC(C4CCN(Cc5ccc6cc(OC)ccc6c5)CC4)CC3)ccc2c1 0.97
COc1ccc(/C(=N/O)C(c2ccc(OC)cc2)C2C(=O)Oc3ccccc32)cc1 (stereo not drawn) 0.99
O=C1C=CC2=C3c4cc(O)c(O)cc4CC3(O)COC2=C1O (stereo not drawn) [Hematein] 0.983
O=c1cc[nH]c(=O)[nH]1 [Uracil] 1.1
CO[C@@H]1[C@H](O)CC[C@]2(CO2)[C@H]1[C@@]1(C)O[C@@H]1CC=C(C)C [Gelcohol] 0.92
COc1ccc(C(=O)/C(Br)=C\C(=O)O)cc1 [Sodium bromebrate, (Z)-] 0.92
Cc1nc(Cl)c(C)c(Cl)n1 [4,6-Dichloro-2,5-dimethylpyrimidine] 1.11
Cc1nnc(-n2c(O)cc(=O)n(-c3ccccc3)c2=S)nc1/C=C/c1ccc(N(C)C)cc1 0.99
O=C1c2cccc(NCCCNCCO)c2C(=O)c2cccc(NCCCNCCO)c21 1.11
CCN(CC)CCNC(=O)c1nn(-c2ccc(Cl)cc2)c2c1CCc1cc(OC)ccc1-2 1.04

2 compounds picked at random from the list so far:
Kcc2 promoter-driven luciferase activity, inactive:
O=C1C=CC2=C3c4cc(O)c(O)cc4CC3(O)COC2=C1O (stereo not drawn) [Hematein] 0.983
O=C1Cc2c(-c3ccccc3)cc(-c3cccc(Cl)c3)nc2-c2ccccc2N1 0.87

Next part:

Kcc2 promoter-driven luciferase activity, active:
CC/C(=C(\c1ccccc1)c1ccc(OCCN(C)C)cc1)c1ccccc1 [Tamoxifen Citrate] 1.25
CCCCCCCC/C=C\CCCCCCCC(=O)O [Oleic acid] 1.42
Nc1ccc(S(=O)(=O)Nc2cnc3c(Cl)cccc3n2)cc1 [Chlorsulfaquinoxaline] 1.39
O=C1C=Cc2ncccc2C1=O [5,6-Quinolinedione] 1.26
CSc1ccc(NC(=O)CCl)cc1 [2-Chloro-N-(4-methylsulfanylphenyl)acetamide] 1.33
Cc1ccc(S(=O)(=O)NC(=O)NC2=NC(C)(C)N(c3ccc(Cl)c(Cl)c3)C(N)=N2)cc1 1.39
Nc1cc2[nH]cnc2c(=O)[nH]1 [Dezaguanine] 2
Cc1ccccc1NC(=O)C(=O)C(C(=O)c1ccccc1F)C1OC(=O)c2ccccc21 (stereo not drawn) 1.34
